Here are results for one substance from paper PMC5976439.

Chains of the proteins cited; added tags and fusions are not shown.
UniProt O60264: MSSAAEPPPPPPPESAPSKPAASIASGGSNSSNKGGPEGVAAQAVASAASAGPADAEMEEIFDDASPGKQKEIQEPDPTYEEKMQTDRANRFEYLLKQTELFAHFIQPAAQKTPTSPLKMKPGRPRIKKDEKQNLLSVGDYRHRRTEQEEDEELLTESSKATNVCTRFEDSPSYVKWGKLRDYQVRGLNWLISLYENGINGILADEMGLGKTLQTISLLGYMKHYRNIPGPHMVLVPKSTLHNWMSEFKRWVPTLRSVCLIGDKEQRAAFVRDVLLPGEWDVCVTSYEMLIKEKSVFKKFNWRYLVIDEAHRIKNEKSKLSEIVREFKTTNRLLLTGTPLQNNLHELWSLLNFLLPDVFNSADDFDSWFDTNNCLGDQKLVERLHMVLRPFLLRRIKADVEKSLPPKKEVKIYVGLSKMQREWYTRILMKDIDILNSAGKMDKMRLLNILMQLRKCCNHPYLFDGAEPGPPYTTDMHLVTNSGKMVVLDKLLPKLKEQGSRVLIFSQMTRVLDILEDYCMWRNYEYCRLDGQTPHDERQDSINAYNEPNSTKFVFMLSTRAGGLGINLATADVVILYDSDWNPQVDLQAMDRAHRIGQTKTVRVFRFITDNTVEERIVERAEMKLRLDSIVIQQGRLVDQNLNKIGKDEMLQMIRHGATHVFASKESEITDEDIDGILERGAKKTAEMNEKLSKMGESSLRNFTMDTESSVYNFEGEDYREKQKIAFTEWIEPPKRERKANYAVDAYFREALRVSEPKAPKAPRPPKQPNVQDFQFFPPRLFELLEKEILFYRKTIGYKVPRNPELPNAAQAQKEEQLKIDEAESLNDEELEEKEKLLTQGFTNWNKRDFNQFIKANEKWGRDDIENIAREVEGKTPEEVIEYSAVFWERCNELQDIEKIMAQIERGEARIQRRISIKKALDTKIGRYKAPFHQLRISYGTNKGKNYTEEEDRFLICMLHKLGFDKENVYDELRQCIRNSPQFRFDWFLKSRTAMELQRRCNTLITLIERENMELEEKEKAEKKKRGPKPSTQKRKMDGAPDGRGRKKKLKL
UniProt Q9NRL2: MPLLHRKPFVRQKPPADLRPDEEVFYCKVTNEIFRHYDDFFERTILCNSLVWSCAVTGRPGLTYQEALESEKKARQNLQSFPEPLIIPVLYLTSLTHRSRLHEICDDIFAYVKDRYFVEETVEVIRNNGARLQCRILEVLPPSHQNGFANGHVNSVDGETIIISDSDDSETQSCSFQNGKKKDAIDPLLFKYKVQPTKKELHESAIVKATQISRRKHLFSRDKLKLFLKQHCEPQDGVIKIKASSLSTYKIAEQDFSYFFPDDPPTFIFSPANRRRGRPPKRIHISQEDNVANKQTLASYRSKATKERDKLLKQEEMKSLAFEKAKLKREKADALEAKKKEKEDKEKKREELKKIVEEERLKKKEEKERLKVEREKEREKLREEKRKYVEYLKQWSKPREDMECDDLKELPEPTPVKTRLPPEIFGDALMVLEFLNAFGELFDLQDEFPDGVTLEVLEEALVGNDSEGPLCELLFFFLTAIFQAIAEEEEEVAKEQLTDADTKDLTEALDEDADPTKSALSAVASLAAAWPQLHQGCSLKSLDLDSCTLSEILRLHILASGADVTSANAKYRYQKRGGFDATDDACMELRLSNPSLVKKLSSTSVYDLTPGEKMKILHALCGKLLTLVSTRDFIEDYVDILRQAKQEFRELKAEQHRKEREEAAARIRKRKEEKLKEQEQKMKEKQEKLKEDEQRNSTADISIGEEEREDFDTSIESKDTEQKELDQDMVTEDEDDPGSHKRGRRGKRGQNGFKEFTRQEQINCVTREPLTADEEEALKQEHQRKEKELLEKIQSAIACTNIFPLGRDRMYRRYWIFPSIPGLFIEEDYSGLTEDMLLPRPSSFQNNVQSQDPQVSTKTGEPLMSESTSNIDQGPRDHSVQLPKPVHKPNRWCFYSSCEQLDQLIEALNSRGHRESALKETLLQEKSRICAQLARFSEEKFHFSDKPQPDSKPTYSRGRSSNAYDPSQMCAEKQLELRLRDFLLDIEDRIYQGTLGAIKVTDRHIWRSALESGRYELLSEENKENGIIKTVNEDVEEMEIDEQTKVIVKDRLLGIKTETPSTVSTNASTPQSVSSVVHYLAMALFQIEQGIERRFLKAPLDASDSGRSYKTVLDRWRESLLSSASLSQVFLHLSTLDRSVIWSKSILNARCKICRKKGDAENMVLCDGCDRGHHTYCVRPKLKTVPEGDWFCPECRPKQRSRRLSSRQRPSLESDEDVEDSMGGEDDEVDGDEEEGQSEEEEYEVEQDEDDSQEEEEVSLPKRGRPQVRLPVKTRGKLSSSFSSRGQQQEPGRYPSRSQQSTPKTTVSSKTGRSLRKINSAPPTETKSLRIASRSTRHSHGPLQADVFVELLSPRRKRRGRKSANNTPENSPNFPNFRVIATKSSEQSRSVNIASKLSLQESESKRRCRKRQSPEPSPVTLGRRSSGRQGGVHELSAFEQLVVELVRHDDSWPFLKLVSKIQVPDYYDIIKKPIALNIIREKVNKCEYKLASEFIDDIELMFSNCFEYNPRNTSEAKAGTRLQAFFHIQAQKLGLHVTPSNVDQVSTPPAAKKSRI

The target in this test is SNF2h-FLAG (Sf9) (human) (UniProt O60264). The test can be described thus: co-IP; FLAG immunoaffinity purification: Sf9 nuclear extracts mixed at a 10:1 Acf1:SNF2h-FLAG volume ratio, bound to FLAG M2-affinity resin, washed with increasing KCl, eluted with 100 mM KCl and 1 mg/mL FLAG peptide; SDS-PAGE.

Results are given in words; binding and its absence hold for the method and conditions named. In cells and extracts the contact can be indirect. Some binding calls cover weakened binding; strength is not graded here.

As for “Acf1 (accessory subunit of human ACF) (from UniProt Q9NRL2 1-1556)”, the binding entry is recorded as “binds”.
